Reference: patent publication US20240382677A1
Results are given in words; binding and its absence hold for the method and conditions named. Binding calls can cover weak binding; strength is not graded here.

Experiments:
[1] = molecular target: recombinant cynomolgus monkey PD-1 expressed with a C-terminal myc-myc-hexahistidine tag (cynomolgus monkey (Macaca fascicularis)); experiment: SPR (Biacore), mAb captured, 25 C
[2] = molecular target: recombinant human PD-1 expressed with a C-terminal myc-myc-hexahistidine tag (human); experiment: SPR (Biacore), mAb captured, 25 C
[3] = molecular target: recombinant cynomolgus monkey PD-1 expressed with a C-terminal myc-myc-hexahistidine tag (cynomolgus monkey (Macaca fascicularis)); experiment: SPR (Biacore), mAb captured, 37 C
[4] = molecular target: recombinant human PD-1 expressed with a C-terminal myc-myc-hexahistidine tag (human); experiment: SPR (Biacore), mAb captured, 37 C

Measured: binding

B1: H2aM7780N (antibody, mouse IgG2a, V domains shown)
VH: QVQLVESGGGVVQSGRSLRLSCAASGFTFSSYGMHWVRQAPGKGLEWVAVIWYDGSNIYYSDSVKGRFTISRANSKNTLYLQMNSLRAEDTAVYYCARPGHWNYFFEYWGQGTLVTVSS
VL: DIQMTQSPSSLSASVGDRVTITCRASQSINNYLNWYQQKPGKAPKLLIYTASSLQSGVPSRFSGSGSGTDFTLTISSLQPEDFATYYCQQSYSTPPLTFGQGTQLEIK
binds: all assays above

B2: H1M7789N (antibody, mouse IgG1, V domains shown)
VH: EVQLLESGGGLVQPGGSLRLSCSASGFTFSSYTMNWVRQAPGKGLEWVSGISDTGGNTYYTDSVKGRFTVSRDNSKNTLSLQMNSLRAEDTAVYYCAKDQGGSYPYYFHYWGQGSLVTVSS
VL: DIQMTQSPSSLSASVGDRVTITCRASQSISSYLIWYQQKPGTAPKFLIYAASSLQSGVPSRFSGCGSGTDFTLTISSLQPEDFATYYCQQSYSTPPITFGQGTRLEIK
binds: all assays above

B3: H2aM7791N (antibody, mouse IgG2a, V domains shown)
VH: QMQLQQWGAGLLKPSETLSLTCVVYGGSLNGYYWSWIRQSPGKGLEWIGEIDHSGSTNYNPSLKNRVTMSVDTSKIQFSLKLTSVTVADTAVYYCAREGLLPFDYWGQGTLVTVSS
VL: EIVLTQSPGTLSLSPGERVTLSCRASQSVYSNYLAWYQQNPGQAPRLLIYAASNRATGIPDRFSGSGSGTDFTLTISRLEPEDFAVYYCHQYATSPWTFGQGTKVEIK
binds: all assays above

B4: H2aM7795N (antibody, mouse IgG2a, V domains shown)
VH: EVQVVESGGGLVEPGRSLRLSCKASGFTFDDYAMHWVRQTPGKALEWVSGINWSGNNIGYADSVKGRFTISKDDAKNSLYLQMNSLRPEDTALYYCTKDISITGTLDAFDVWGQGTMVTVSS
VL: DIQMTQSPISVSASVGDRVTITCRASQGISNWLAWYQQKPGIAPKLLIYSASSLQSGVPSRFRGSGSGTDFTLTIGSLQPEDFATYYCQQAHSFPLTFGGGTKVEIK
binds: all assays above

B5: H2aM7798N (antibody, mouse IgG2a, V domains shown)
VH: EVQLLESGGVLVQPGGSLRLSCAASGFTFSNFGMTWVRQAPGKGLEWVSGISGGGRDTYFADSVKGRFTISRDNSKNTLYLQMNSLKGEDTAVYYCVKWGNIYFDYWGQGTLVTVSS
VL: DIQMTQSPSSLSASVGDSITITCRASLSINTFLNWYQQKPGKAPNLLIYAASSLHGGVPSRFSGSGSGTDFTLTIRTLQPEDFATYYCQQSSNTPFTFGPGTVVDFR
binds: all assays above

B6: H4H7795N2 (antibody, human IgG4 S228P, kappa, V domains shown)
VH: EVQVVESGGGLVEPGRSLRLSCKASGFTFDDYAMHWVRQTPGKALEWVSGISWSGNNIGYADSVKGRFTISKDDAKNSLYLQMNSLRPEDTALYYCTKDISITGTLDAFDVWGQGTMVTVSS
VL: DIQMTQSPISVSASVGDRVTITCRASQGISNWLAWYQQKPGIAPKLLIYSASSLQSGVPSRFRGSGSGTDFTLTIGSLQPEDFATYYCQQAHSFPLTFGGGTKVEIKR
binds: all assays above

B7: H4H7798N (antibody, human IgG4 S228P, kappa, V domains shown)
VH: EVQLLESGGVLVQPGGSLRLSCAASGFTFSNFGMTWVRQAPGKGLEWVSGISGGGRDTYFADSVKGRFTISRDNSKNTLYLQMNSLKGEDTAVYYCVKWGNIYFDYWGQGTLVTVSS
VL: DIQMTQSPSSLSASVGDSITITCRASLSINTFLNWYQQKPGKAPNLLIYAASSLHGGVPSRFSGSGSGTDFTLTIRTLQPEDFATYYCQQSSNTPFTFGPGTVVDFRR
binds: all assays above

B8: H2aM7796N (antibody, mouse IgG2a, V domains shown)
VH: QVQLVESGGGVVQPGRSLRLSCAASGFTFSSYGMHWVRQAPGKGLEWVAIIWSDGDSEYNLDSVKGRFTISRDNSKNTLYLQMNSLRVEDSAVYYCARDRDLEDIWGQGTMVTVSS
VL: DIQMTQSPSSLSASVGDRVTITCRASQGIRNDLGWYQQKPGKAPKRLIYAASNLQSGVPSRFSGSGSGTEFTLTISSLQPEDFATYYCLQHNSYPLTFGGGTKVEIK
binds: [2] | [4]
